Results deposited as PubChem BioAssay AID504804 (Drosophila RNAi Screening Center, 2011).

- Test: 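dsRNAs that improve Kc cell survival under doxorubicin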 (primary screen)
- Cell system: Drosophila Kc cells
- Knock-down reagent: long dsRNA against Drosophila genes, 0.5 µg dsRNA per well
- Timing: 96 h (48 h knock-down, then 48 h drug)
- Treatment: doxorubicin 5 µg/ml for 48 h, added 48 h after dsRNA
- Measurement: 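Viability measured as cellular ATP by luminescence after 48 h knock-down then 48 h doxorubicin at 5 µg/ml; unnormalised plate counts for each replicate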
- Direction: raw ATP luminescence: higher = more viable cells, protection from doxorubicin
- Call rule: 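z-score of 2 or more over plate mean in both duplicates, retained only when retests and separate dsRNAs confirm the protection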
The screen tested about 19,000 reagents; below is an unselected part of those that have a named target and a result. Over the whole deposit, 47 (0.25%) were called active. 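Signals are raw, not normalised; exact z-scores behind calls not deposited; actives needed confirmation, so some wells reaching 2 SD are inactive.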 A plus sign joins genes that one reagent is predicted to hit. No sequences are given here.

| gene | raw ATP luminescence, replicate 1 | raw ATP luminescence, replicate 2 | activity call |
| --- | --- | --- | --- |
| SLIRP2 (GeneID 41021) | 66507 | 58723 | inactive |
| CG34034 (GeneID 3885584) | 2.39e5 | 2.21e5 | inactive |
| CycC (GeneID 41801) | 60017 | 24120 | inactive |
| CG15771 (GeneID 31500) | 32840 | 40950 | inactive |
| CG6800 (GeneID 42562) | 44030 | 59540 | inactive |
| CG7131 (GeneID 42197) | 80837 | 64727 | inactive |
| escl (GeneID 34611) | 1.17e5 | 86317 | inactive |
| RpS8 (GeneID 43532) | 31890 | 24640 | inactive |
| Vti1a (GeneID 38085) | 80917 | 64710 | inactive |
| Arr1 (GeneID 35078) | 66560 | 1.06e5 | inactive |
| blp (GeneID 41937) | 62820 | 70210 | inactive |
| Spf45 (GeneID 3355114) | 66813 | 70023 | inactive |
| PICK1 (GeneID 34677) | 79347 | 94240 | inactive |
| CG7179 (GeneID 34059) | 28553 | 21027 | inactive |
| CNT1 + CG13742 | 48683 | 73700 | inactive |
| CG11145 (GeneID 35663) | 48560 | 65410 | inactive |
| PPP4R2r (GeneID 31979) | 3.48e5 | 3.59e5 | inactive |
| CG15034 (GeneID 31670) | 67650 | 63130 | inactive |
| CG30109 (GeneID 246461) | 1.91e5 | 1.48e5 | inactive |
| CG10581 (GeneID 40326) | 62660 | 51083 | inactive |
| Syn (GeneID 41247) | 54960 | 43587 | inactive |
| CG10343 (GeneID 35127) | 27533 | 32513 | inactive |
| Ephrin (GeneID 43799) | 60780 | 66200 | inactive |
| CG4053 (GeneID 42070) | 76260 | 79290 | inactive |
| Mat1 (GeneID 36130) | 31967 | 70343 | inactive |
| COX6AL2 (GeneID 40066) | 66887 | 43280 | inactive |
| CG15140 (GeneID 5740546) | 74690 | 80607 | inactive |
| CG32590 (GeneID 318103) | 3.30e5 | 2.72e5 | inactive |
| CG9162 (retired record) (GeneID 33860) | 1.02e5 | 63753 | inactive |
| CG11226 (GeneID 40501) | 68583 | 57263 | inactive |
| CAH15 (GeneID 37366) | 47397 | 48787 | inactive |
| CG13293 (GeneID 38695) | 88190 | 97580 | inactive |
| CG5846 (GeneID 34326) | 84467 | 74740 | inactive |
| CG10470 (GeneID 35174) | 69367 | 67237 | inactive |

Only “raw ATP luminescence, replicate 2” (5 entries from above):
RpS8 (GeneID 43532) = 24640
Vti1a (GeneID 38085) = 64710
Arr1 (GeneID 35078) = 1.06e5
blp (GeneID 41937) = 70210
Spf45 (GeneID 3355114) = 70023
